The assay relates to histamine-induced vascular permeability in guinea pig conjunctiva. The assay can be described thus: histamine-induced vascular permeability in guinea pig conjunctiva, topical ocular pretreatment. Type of assay: in vivo, guinea pig (Male Dunkin Hartley). The note with it: 30 min pretreatment; relative to emedastine difumarate = 1.0; (95% Confidence limits). As for the experimental part: The topical ocular antihistaminic effect of emedastine difumarate was assessed in a model of histamine induced vascular permeability in guinea pig conjunctiva. The potency of emedastine difumarate in this model was then compared with those of reference antihistamines.
Male Dunkin Hartley Viral Antibody Free outbred guinea pigs (Charles River Labs, Portage, Mich.), weighing approximately 250-350 grams (6/group) were injected intravenously (i.v.) via the marginal ear vein with 1.0 mL of Evans Blue dye (1.0 mg/mL). Forty-five (45) minutes post dye injection, 20 μL of test compound or saline vehicle was applied topically to one eye of each experimental animal. […] Responses were quantitated as described by Yanni et al. in Int. Arch. Allergy Immunol., 101:102-106 (1993). Response scores from the treated groups were then compared with scores obtained in the saline-treated group using Dunnett's t test (Dunnett C. W., "A multiple comparison procedure for comparing treatments with a control." J. Am. Stat. Assoc. 50:1096-1121(1955)). Regression analysis was used to determine relative potency (Bliss, C. and E. Gjorgy. In Vitamin Methods, Vol. 2, pp. 445-610, Academic Press, Inc., New York, 1951.).

In the case of `CN1CCC[C@@H]1CCO[C@](C)(c1ccccc1)c1ccc(Cl)cc1` [Clemastine, reference compound], the Potency is 0.105 (0.063-0.176).

(Values after patent US5668133A, “Ophthalmic compositions comprising emedastine and methods for their use” (priority 1995, dated 1997).)
